These are yes or no findings as the source states them, for the method shown. For some assays here: A result given as binding can be weak or reduced; the word gives no strength.

One molecule from patent publication US20090011464A1 (published 2009) can be followed below.

In assay [1] the target is α4β7 integrin on guinea pig lymphocytes (guinea pig). Put plainly: flow cytometry, biotinylated antibody on whole-blood lymphocytes. Background: In flow cytometry, cells or beads pass a laser one at a time.
Assay [2] has as its target α4β7 integrin on cat lymphocytes (cat). Put plainly: flow cytometry on cat whole-blood lymphocytes, 15 µg/ml biotinylated antibody.

B1: murine Act-1 monoclonal antibody (antibody, mouse IgG1, V domains shown)
VH: QVQLQQPGAELVKPGTSVKLSCKGYGYTFTSYWMHWVKQRPGQGLEWIGEIDPSESNTNYNQKFKGKATLTVDISSSTAYMQLSSLTSEDSAVYYCARGGYDGWDYAIDYWGQGTSVTVSS
VL: DVVVTQTPLSLPVSFGDQVSISCRSSQSLAKSYGNTYLSWYLHKPGQSPQLLIYGISNRFSGVPDRFSGSGSGTDFTLKISTIKPEDLGMYYCLQGTHQPYTFGGGTKLEIK
notes: Mouse IgG1/kappa from the Act-1 hybridoma (ATCC PTA-3663); also called mAb Act-1; mouse Act-1 antibody
For the molecule B1, the binding entry in assay [1] was “no binding (tested: 15 µg/ml)”; in assay [2], “binds”.
